Experimental data from PubChem BioAssay AID248 (DTP/NCI, 2004).
The list does not hold the whole screen: it is rich in T/C values a quarter to a half above the control, in often repeated tests (any T/C) and in doses without a T/C. Other doses and runs of a compound stand elsewhere. T/C: endpoint of the treated group in % of that of the vehicle group. Some doses have a count of surviving animals in place of a T/C: the source holds a T/C of zero for them, seemingly a mark for toxic or unscored doses. Some survivor counts are full or nearly so, which does not show that the dose was tolerated: survival well below the control is almost never listed, so the zero probably covers shortened survival too. Counts of survivors are from the toxicity check (mostly the fifth day) where no day follows; animals may have died later. Schedules are NCI's codes, read here as Q, the interval in days (D) or hours (H), X, the number of doses. For survival time, this PubChem deposit counts one and a half times the control or more as active, and values a quarter to a half above the control carry no call in these data; other NCI protocols may use other cut-offs. Some entries were tested several times; the results are listed from low to high. Some schedules carry Z or #; the key to these is not given. Some T/C values carry the count of animals alive at the toxicity check (mostly the fifth day); without a count, all were alive then.

System: L1210 leukemia ip in BDF1 mice, survival T/C
Assay: NCI In Vivo Anticancer Drug Screen. Data for tumor model L1210 Leukemia (intraperitoneal) in B6D2F1 (BDF1) mice
Conditions: T/C endpoint: mean survival time, higher T/C = longer survival
[1] = dose: 50.0 mg/kg/injection, schedule: Q01DX009 (ip), vehicle: saline
[2] = dose: 400.0 mg/kg/injection, schedule: Q04DX003 (ip), vehicle: saline
[3] = dose: 100.0 mg/kg/injection, schedule: Q01DX009 (ip), vehicle: saline with Tween-80
[4] = dose: 200.0 mg/kg/injection, schedule: Q01DX009 (ip), vehicle: saline with Tween-80
[5] = dose: 300.0 mg/kg/injection, schedule: Q01DX001 (ip), vehicle: carboxymethylcellulose (CMC)
[6] = dose: 400.0 mg/kg/injection, schedule: Q04DX003 (ip), vehicle: Klucel (hydroxypropylcellulose) (HPC)
[7] = dose: 150.0 mg/kg/injection, schedule: Q01DX001 (ip), vehicle: carboxymethylcellulose (CMC)
[8] = dose: 200.0 mg/kg/injection, schedule: Q01DX001 (ip), vehicle: saline
[9] = dose: 400.0 mg/kg/injection, schedule: Q01DX001 (ip), vehicle: saline
[10] = dose: 300.0 mg/kg/injection, schedule: Q01DX001 (ip), vehicle: saline
[11] = dose: 100.0 mg/kg/injection, schedule: Q01DX009 (ip), vehicle: saline
[12] = dose: 75.0 mg/kg/injection, schedule: Q01DX001 (ip), vehicle: saline
[13] = dose: 50.0 mg/kg/injection, schedule: Q01DX009 (ip), vehicle: Klucel (hydroxypropylcellulose) (HPC)
[14] = dose: 100.0 mg/kg/injection, schedule: Q01DX009 (ip), vehicle: Klucel (hydroxypropylcellulose) (HPC)
[15] = dose: 200.0 mg/kg/injection, schedule: Q01DX009 (ip), vehicle: Klucel (hydroxypropylcellulose) (HPC)

Cc1cccc(N=Cc2ccc(Cl)cc2Cl)c1C was tested, and the survivor count (dose: 400.0 mg/kg/injection, schedule: Q01DX009 (ip), vehicle: alcohol) was 5 of 6.
CCCCCCCCCCCCCC[S+](C)C was tested, and the survivor count [1] was 2 of 6.
CCN=C(c1ccc(NC(=O)c2ccc(C(=O)Nc3ccc(C(=NCC)N(CC)C(=O)NCCCCl)cc3)cc2)cc1)N(CC)C(=O)NCCCCl was tested, and the T/C (dose: 3.75 mg/kg/injection, schedule: Q01DX015 (ip), vehicle: methylcellulose (MC)) was 131 % of control, the T/C (dose: 4.0 mg/kg/injection, schedule: Q01DX015 (ip), vehicle: methylcellulose (MC)) was 138 % of control and the T/C (dose: 7.5 mg/kg/injection, schedule: Q01DX015 (ip), vehicle: methylcellulose (MC)) was 129 % of control [5 of 6 alive]. The survivor count (dose: 15.0 mg/kg/injection, schedule: Q01DX015 (ip), vehicle: methylcellulose (MC)) was 0 of 6, the survivor count (dose: 30.0 mg/kg/injection, schedule: Q01DX015 (ip), vehicle: methylcellulose (MC)) was 0 of 6 and the survivor count (dose: 62.5 mg/kg/injection, schedule: Q01DX015 (ip), vehicle: methylcellulose (MC)) was 0 of 6. For the same molecule, the survivor count (dose: 125.0 mg/kg/injection, schedule: Q01DX015 (ip), vehicle: methylcellulose (MC)) was 0 of 6, the survivor count (dose: 250.0 mg/kg/injection, schedule: Q01DX015 (ip), vehicle: methylcellulose (MC)) was 0 of 6 and the survivor count (dose: 500.0 mg/kg/injection, schedule: Q01DX015 (ip), vehicle: methylcellulose (MC)) was 0 of 6.
In the case of C=C1C(=O)OC2CCC3OC3CCC12 (stereo not drawn) (tested in a mixture with another compound), the survivor count [2] is reported as 1 of 4.
In the case of CN(C)CCCc1c2ccccc2nc2ccc(Cl)cc12, the survivor count [1] is reported as 5 of 6, the survivor count (dose: 100.0 mg/kg/injection, schedule: Q04DX003 (ip), vehicle: saline) is reported as 3 of 6 and the survivor count (dose: 200.0 mg/kg/injection, schedule: Q04DX003 (ip), vehicle: saline) is reported as 0 of 6. For the same molecule, the survivor count [2] was 0 of 6.
With Cc1c(Cl)cccc1NC(=O)Oc1ccccc1Cc1ccccc1 the T/C [3] was 87, 89, 91, 93 % of control, the T/C [4] was 90, 91, 94 % of control and the survivor count [4] was 6 of 6.
For O=C(O)/C=C/C(=O)OCCO, the survivor count [5] was 6 of 6.
In the case of O=C(O)c1ccc(C(Cl)(Cl)Cl)cc1, the survivor count [6] is reported as 0 of 6.
O=C(c1ccccn1)c1nnn2ccccc12 was tested, and the survivor count (dose: 400.0 mg/kg/injection, schedule: Q04DX002 (ip), vehicle: saline with Tween-80) was 1 of 3.
In the case of CCN1CCC(c2ccccc2)(c2ccccc2)C1=N, the survivor count [7] is reported as 0 of 6 and the survivor count [5] is reported as 0 of 6.
With C=C(CCCCC)C(=O)/C=C/c1ccc(Cl)c(Cl)c1 the survivor count (dose: 100.0 mg/kg/injection, schedule: Q04DX002 (ip), vehicle: DMSO) was 0 of 3, the survivor count (dose: 200.0 mg/kg/injection, schedule: Q04DX002 (ip), vehicle: DMSO) was 0 of 3 and the survivor count (dose: 400.0 mg/kg/injection, schedule: Q04DX002 (ip), vehicle: DMSO) was 0 of 3.
With Cc1ccc2nc(C)cc(NC(=O)c3ccccc3)c2c1 the survivor count (dose: 100.0 mg/kg/injection, schedule: Q01DX001 (ip), vehicle: saline) was 0 of 6, the survivor count [8] was 0 of 6 and the survivor count [9] was 0 of 6.
In the case of ClCCNCc1ccc(Nc2ccnc3cc(Cl)ccc23)cc1, the survivor count [7] is reported as 2 of 6 and the survivor count [5] is reported as 0 of 6.
In the case of CCC(CC)NNC(CC)CC, the survivor count [10] is reported as 0 of 6.
For O=C(O)c1ccc(F)cc1O, the survivor count [9] was 0 of 4.
With CC1(C)N=C(N)N=C(N)N1c1ccc(CC(=O)Nc2cccc(S(=O)(=O)F)c2)cc1 the T/C (dose: 25.0 mg/kg/injection, schedule: Q#A X018 (ip), vehicle: saline) was 126 % of control, the T/C [11] was 125 % of control [5 of 6 alive] and the survivor count [11] was 3 of 6. The survivor count (dose: 200.0 mg/kg/injection, schedule: Q01DX009 (ip), vehicle: saline) was 2 of 6, the survivor count (dose: 300.0 mg/kg/injection, schedule: Q01DX009 (ip), vehicle: saline) was 0 of 6 and the survivor count [9] was 1 of 6. The survivor count (dose: 400.0 mg/kg/injection, schedule: Q01DX009 (ip), vehicle: saline) was 0 of 6.
In the case of CCN(CC)C(C)(O)CN (stereo not drawn), the survivor count [9] is reported as 1 of 4.
For Cc1n[nH]c(C)c1N=NN1CCOCC1, the survivor count (dose: 10.0 mg/kg/injection, schedule: Q01DX001 (ip), vehicle: saline) was 2 of 6, the survivor count (dose: 20.0 mg/kg/injection, schedule: Q01DX001 (ip), vehicle: saline) was 1 of 6 and the survivor count (dose: 30.0 mg/kg/injection, schedule: Q01DX001 (ip), vehicle: saline) was 0 of 6. The survivor count (dose: 40.0 mg/kg/injection, schedule: Q01DX001 (ip), vehicle: saline) was 0 of 6, the survivor count [12] was 0 of 6 and the survivor count (dose: 150.0 mg/kg/injection, schedule: Q01DX001 (ip), vehicle: saline) was 0 of 6. For the same molecule, the survivor count [10] was 0 of 6.
O=C(CCl)c1ccc(Oc2ccccc2)cc1 was tested, and the survivor count (dose: 80.0 mg/kg/injection, schedule: Q01DX009 (ip), vehicle: Klucel (hydroxypropylcellulose) (HPC)) was 3 of 6, the survivor count (dose: 200.0 mg/kg/injection, schedule: Q04DX003 (ip), vehicle: Klucel (hydroxypropylcellulose) (HPC)) was 3 of 6 and the survivor count [6] was 0 of 6.
In the case of OC[CH2][Hg][I], the survivor count (dose: 3.13 mg/kg/injection, schedule: Q01DX009 (ip), vehicle: Klucel (hydroxypropylcellulose) (HPC)) is reported as 6 of 6, the survivor count (dose: 12.5 mg/kg/injection, schedule: Q01DX009 (ip), vehicle: Klucel (hydroxypropylcellulose) (HPC)) is reported as 2 of 6 and the survivor count (dose: 25.0 mg/kg/injection, schedule: Q01DX009 (ip), vehicle: Klucel (hydroxypropylcellulose) (HPC)) is reported as 0 of 6. The survivor count [13] was 0 of 6, the survivor count [14] was 0 of 6 and the survivor count [15] was 0 of 6. The survivor count (dose: 400.0 mg/kg/injection, schedule: Q01DX009 (ip), vehicle: Klucel (hydroxypropylcellulose) (HPC)) was 0 of 6.
For CCOP(=O)(OCC)ON1C(=O)c2cccc3cccc(c23)C1=O, the survivor count [13] was 1 of 3, the survivor count [14] was 0 of 3 and the survivor count [15] was 0 of 3.
With CCCCCC(C[N+](C)(C)C)C(=O)/C=C/c1ccc(Cl)cc1 (stereo not drawn) the survivor count [3] was 4 of 6, the survivor count [4] was 0 of 6 and the survivor count (dose: 400.0 mg/kg/injection, schedule: Q01DX009 (ip), vehicle: saline with Tween-80) was 0 of 6. For the same molecule, the survivor count [6] was 2 of 6.
In the case of O=C1C=C/C(=N/c2ccc(O)o2)c2ccccc21, the survivor count [12] is reported as 3 of 6 and the survivor count [10] is reported as 1 of 6.
For Cc1ccc2cccnc2c1N (tested in a mixture with another compound), the survivor count (dose: 50.0 mg/kg/injection, schedule: Q01DX009 (ip), vehicle: DMSO) was 4 of 6, the survivor count (dose: 100.0 mg/kg/injection, schedule: Q01DX009 (ip), vehicle: DMSO) was 1 of 6 and the survivor count (dose: 200.0 mg/kg/injection, schedule: Q04DX003 (ip), vehicle: DMSO) was 6 of 6. The survivor count (dose: 400.0 mg/kg/injection, schedule: Q04DX003 (ip), vehicle: DMSO) was 4 of 6.
For O=C(OCc1ccccc1)C1CCCN1Cc1ccc2c(c1)OCO2 (stereo not drawn), the survivor count [8] was 4 of 4.
